The results are deposited in PubChem (AID1159506; NCATS, 2015).

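Luminescence from an EWS-FLI1 target-promoter (NR0B1) reporter, set against a CMV-promoter reporter, two days after silencing single genes in TC32 Ewing sarcoma cells. Each siRNA was applied at 20 nM. A z-score of the log NR0B1-over-CMV signal, less the median of siRNAs with the same seed; more negative means a stronger specific loss of the NR0B1 reporter.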

This is part of the screen; most of the strongest results are not listed here. Sequences are the guide (antisense) strand, without overhang.

| # | strand | gene | seed-corrected z-score |
|---|---|---|---|
| 1 | `AUCAUGAUGGAAUACUUGG` | NDUFA3P3 | 1.127 |
| 2 | `UUGCAAAUCAGACAUAGCU` | NUP210P1 | 0.3319 |
| 3 | `UUGGUAUCAGCUCUACUCG` | PTPN14 | -0.5897 |
| 4 | `UUUGCAACGAGUGUAGAUU` | LYZL1 | 0.4162 |
| 5 | `UUUGUUGCUCUUCUAGCCG` | MAP4K4 | -0.5451 |
| 6 | `UAACGAAUACUGCUCAUGG` | DCAF8L2 | -0.7571 |
| 7 | `UCGCUUGAAAGGUCCUUCG` | IL17RD | -0.06854 |
| 8 | `UGUCCAAUAAGUCCGGAGG` | STRBP | -0.8069 |
| 9 | `UAACCAAACUCUUGCAUUU` | RBP7 | 0.09487 |
| 10 | `UUCUUGUAAAGUUGAAUCC` | BTD | 0.5057 |
| 11 | `UCCCAUACAGGAAAUAGCC` | CAND1 | -0.4232 |
| 12 | `AAAUGGGCUGCAUUUAUGU` | TLX1 | 1.817 |
| 13 | `UCAUUUUGAACUUUGUCUC` | RNASE12 | 0.7037 |
| 14 | `AAACUAUCAGGGUAGUCUG` | FLVCR1 | -0.5306 |
| 15 | `UUGAGUUCAAAUUAGAGUC` | SPATA18 | -0.09783 |
| 16 | `UACCGAAUACUCUAAGUCG` | ALLC | -0.6497 |
| 17 | `UUCAUCAAAACGACGAGAC` | PRKCH | -1.086 |
| 18 | `AGAGCUACUCCUUUCGUGC` | ALMS1 | -1.467 |
| 19 | `AUAGUCAAACCUGCAAUAG` | PGM5 | -0.1829 |
| 20 | `AGACUUAUAGUCACCAUCU` | ALX3 | -1.118 |
| 21 | `UUGGGAGUCAGAGUAGGAG` | NOS1 | -0.4218 |
| 22 | `UUCCUGUCAUAUCUUUUCU` | WFDC11 | 0.2409 |
| 23 | `GCAGAAAACUUUCUCAGCG` | C2orf82 | 0.01955 |
| 24 | `UUAGUUAUGAGGGCUAUAG` | ARSB | -0.6526 |
| 25 | `UACAGACCCGUGGUGAUGU` | STK11 | -0.5508 |
| 26 | `UCUUCAUCAUCGCUCAGUG` | CDC37P1 | -1.282 |
| 27 | `UCUUUGUCAACAAUAUCUG` | NME5 | -0.8096 |
| 28 | `UCCAUGUAAAGUACCCUGC` | CCDC30 | 2.139 |
| 29 | `UGACUGGUAAUAUUCCACC` | MARVELD3 | -0.3036 |
| 30 | `AUACGGCUGACAAUUAUGC` | SCML1 | -1.368 |
| 31 | `UCAUCCACCAUUGAUUUAC` | RAP2C | -0.04161 |
| 32 | `UAUUGAUUUGUUUAGCAGC` | RGS1 | -0.601 |
| 33 | `AUUGGAAACAUUGCAAUGC` | ZNF396 | 0.3385 |
| 34 | `AAACUCGAAAUUUACAUCC` | PMS2 | 0.4961 |
| 35 | `UUUGAUGCAAUCAUAUAUG` | ACTL6A | -0.7017 |
| 36 | `UUUGCAAUGAGUACAGACA` | LPXN | -0.4342 |
| 37 | `UCCUUUAUCACUGCGAACC` | HMGCR | -0.2029 |
| 38 | `AUAGGUGUCCACAGGAUUC` | TNXB | -0.06974 |
| 39 | `UUUGCUCUCCUGACCAACC` | CARMN | -0.1067 |
| 40 | `UAUCUAAUGCAGCAGUUCC` | ITCH | -0.1343 |
| 41 | `UCAGUGGCUGUCAGUUUCC` | RBBP8NL | -1.695 |
| 42 | `AGUGGGAUCCAUGCUUUGC` | DLGAP3 | -0.2615 |
| 43 | `UACAGGCACAGAUAUCUCC` | AP1M2 | -0.1464 |

For reference, 4 entries once more:

Result for UACAGACCCGUGGUGAUGU against STK11 was seed-corrected z-score -0.5508.
Result for UACCGAAUACUCUAAGUCG against ALLC was seed-corrected z-score -0.6497.
Result for UAACGAAUACUGCUCAUGG against DCAF8L2 was seed-corrected z-score -0.7571.
Result for AGUGGGAUCCAUGCUUUGC against DLGAP3 was seed-corrected z-score -0.2615.